Results as given in article PMC12647202.
No constants are given. Whether binding was seen depends on the method and setting. Binding seen in cells or lysates may run through a third protein. These calls come from enrichment with a bait or labelling near it, and not all partners need be listed. Tags and fused reporters may be left off the sequences shown.

B1: translation initiation factor IF-2 (protein, UniProt Q31LL9 1-1030)
chain: MNNGKVRIYELSKELNLDNKDVLAVCDRLEIPYKSYSSTLSEEQVVQVRQVLAGAAPSEPVAAASAADSPKAERKQEIVSVRRPTPQAAGGAKPEIVGRPTASEKPQAERPNIVAPPRRPAAANEPAKAPIKPARPEKSAEKPEIVTPRPPAPAASAEPAKSPSRPAPAATPRPVAETKKPKPAAAELLRKPEIVRRSEAKPERTSEAPTPRPKIERRPEQTGPARPQLGQPVAGNGVSKPAKPVKPIELVAPPSRPKVAASASGVPAAASRVLPNKPQKPTAPGGPELKQRPKPAAPASGEDLAATVDVFQPVPPLELRRPTAPARPARPRKGWEEEEDERAAANRKAGNKAAAKAKRRQLIQDDDDDDLLTAEQELAAADALNLAMSLARPSKPKVPQAKPAVAVMPTKGRKPRRESARERQHRRRMEREQKPVRPELISLRSSMTVQELAQLMVVPETDIIKSLFFKGIAATVTQSLDVATIEQVAEEFGILVEQETEESGARKTTQMVEDADAESLQTRPPVVTVMGHVDHGKTTLLDAIRKTRVAAGEAGGITQHIGAYHVDVEHNGDQHQIVFLDTPGHEAFTAMRARGARVTDIAILVVAADDGVRPQTLEAISHAKAAEVPLIVAINKCDKEEAQPDRVKQELTEYGLVPEEWGGETVMVPVSAIKGENIDQLLEMILLVTEVEELVANPDRAARGTVIEAHLDKARGPVATLLVQNGTLRVGDVLVAGSVLGKVRAMVDDRGDRVEAATPSFAVEVLGLGDVPAAGDEFEVYSDEKSARAVATSRADEQRQSRLQQAMASRRVSLGTVSAQAQEGELKELNLILKADVQGSVEAILGSLEQLPQKQVQVRVLLAAPGEITETDVDLAAASGAVIVGFNTTLASGAKRAADEAGVDVRDYDIIYKLLEDIQAAMEGLLEPELVEEPLGQVEVRAVFSIGRGAVAGCYVQSGKAIRNCNIRVRRGSNLVYTGTLDSLKRMKEDVKEVNSGYECGIGLDSFSAWQEGDIIETYRMVTKRRTLEV
B2: 1,4-dihydroxy-2-naphthoyl-CoA synthase (MenB) (enzyme, UniProt Q31QP0 1-279)
chain: MAQVQWQSVREYEDIRYEKCAEGIAKITINRPHKRNAFRPKTVVELYDAFCDAREDIAIGVILLTGAGPHTDGRYAFCAGGDQSVRGAGGYIDEEGLPRLNVLDLQRLIRTIPKVVIALVAGYAIGGGHVLHILCDLTIAADNAVFGQTGPKVGSFDGGFGASYLARLVGQKKAREIWFLCRQYGAKEALQMGLVNTVVPVEELEAEGIRWALEILEKSPIAIRCLKAAFNAELDGMAGIQELAGHATHLYYLTEEGSEGKQAFLEKRSPDFRQYPWLP
B3: tRNA ligase MetG (enzyme, UniProt Q31P47 1-525)
chain: MPSTFALTTPLYYVNDVPHIGSAYTTIAADAIARFHRLQGDRVLMITGSDEHGQKIQRTAEKNGKPPQEHCNAIVARFQDLWQLLNIRYDRFSRTTDPRHQAIVEVFYRRVEAQGDIYVGRQQGWYCVACEEFKEERDLLEDKRCPIHTNQAVEWRDEENYFFRLSRYQEALEAHYAANPDFIQPESRRNEVLSFVERGLQDFSISRVNLEWGFAVPDNPKHTLYVWFDALLGYVTALLDPDAEPTLENALSQWWPINLHLIGKDILRFHAVYWPAMLLSAGLPLPDRVFGHGFLTKDGLKMGKSLGNTLDPFDLVDRFGSDAVRYYFLKEIEFGRDGDYQETRFVNVVNADLANDLGNLLNRTLSMAKRYCQLQIPLGSTAIAADNPLRQQGEALTDSVKSAYDRLAFSEACGQILALVQAGNRYLDQEAPWTRFKQGEQAKVEEILYTVLESVRLAAYWLSPLVPGISQEIYRQLGLVADFNDPAIAQQLDPESHGHWGFLPAAQQFLDPSPVFRSLELAPAD
B4: tRNA ligase AspS (enzyme, UniProt Q31NM6 1-599)
chain: MRTHYCGELRAEQVGTSVTLYGWVDRRRDHGGVIFVDLRDRTGTVQIVSDPERTPESYHQAEGLRNEYVVKITGRVSGRPAESLNPKLPTGEVEIYADRIEILNAVRRQLPFQVSSADEETVREDLRLRYRYLDLRRDRMNRNLQLRHQVVKAIRRFLEDEEQFIEIETPVLTKSTPEGARDYLVPSRVNPGEWFALPQSPQLFKQLLMVSGFDRYYQIARCFRDEDLRADRQPEFTQLDMEMSFLSQEEIIDLNERLIAHIFKTVKGIELPRPFPRLTYAEAMDRYGSDRPDTRFGLELVDVSDVVADMGFKVFSGAVKSGGKVKILPIPDGNDRISNVRIKPGGDIFKEATEAGAAGLAYIRVRENGEIDTIGAIKDNLSDEQKAEILRRTQAQPGTLLLFGAGSTDIVNKSLDRVRQFLGKELGLIDPEALNLLWVVDFPMVEWNADEKRYEALHHPFTAPNPQDLEDLTTARAQAYDIVLNGLEIGGGSLRIYQRDIQERVFETIGLSHEEAQAKFGFLLEAFDFGTPPHGGIAYGLDRLVMLLTGEESIRDAIAFPKTQQARCLLTEAPADVSDRQLKELYVASTWQPPIKERD
B5: elongation factor Ts (protein, UniProt Q31K58 1-221)
chain: MAEISAKLVKELREKTGAGMMDCKKALNENDGDLQKAIEWLRQKGIASAEKKSGRTAAEGLVGSYIHTGGRVGVLVEVNCETDFVARGDKFQELVRSIAMQIAACPNVEFVKVEDIPAEIAEREKAIEMGRDDLANKPENIREKIVVGRIEKRLKELTLLDQPYIRDPNISVAELVKQSIAELGENIQVRRFTRFVLGEGIEKAESDFAAEVAAQAAAAQS
B6: tRNA ligase GlyS (enzyme, UniProt Q31SB9 1-728)
chain: MPAFLLEVGTEELPASFVAAAIAQWQNWLPTRLAEAQLTTTQISVYGTPRRLAVLIEGLPDRQPDREEEVKGPPASAAFKDGEPTPAAIGFARKQGVEVSDFTVRETDKGAFVFVQKREVGQPLADVLQSLVPSWIQDLEGKRFMRWGDGDLRFSRPIRWLVALIDDQVLPLELTSGGSTVQSDRLSRGHRVLHPEPVAIAQASDYLATLEAASVLVDPAQRQAKIEAQTAAIASKVGGQAELPEDLLAEVVHLTEWPTAVLGQFEERFLSLPAEVSTMVMTSHQRYFPIYQATAQRDPAAIDARSELLPCFVTISNGDPAASETIAAGNARVIRARLADGEYFYRTDSKQPLESFLSQLEAVTFQEQLGSVRSKVDRIGAIAHRLCDQLSIHSSDRLLVSRAAQLCKADLVSQMVYEFPELQGVMGEKYARVSQEPDAVATAIREHYLPKGAGDQLPQTLTGRMVALADRLDTLVCIFGLGLLPSGSSDPFALRRAANGVLNILWDGQLRLDLTALIQGIAADFHHAFPKLAGNAETLIQQLTDFFGQRLRTLLQDEQGIDYDLVNAVLGDGDANYLLRAIADPLDALNRAKLLQTLRQDGRLVALYETVNRATRLASKGDLDTATLDPTGLVNADLFQQPSEAAFLSALTTLQPLATAAQASQAYEPLVEGLLTAAPAVQSFFDGDTSVLVMDPDPAIQQNRLNLLGLLRNQARVLADFGAIVKGE
B7: ribose-5-phosphate isomerase A (enzyme, UniProt Q31QQ3 1-241)
chain: MLLNTRKPVMDPVTHMKHEVAKAAASRVQSGMVVGLGSGSTAALMIQYLGDRVRNGELTNIQAVPTSFQSSVLANEYGIPLTTLNEVDRIDIAIDGADEVDPQRNLIKGGGACHTREKLVDARAEQFIVVVDSSKLVEALGTTFLLPVEVLPEAYIQVGKALEKLGGKPELRMAVKKAGPVVTDQGNLVLDVKFDRIDQPAELEKAINNIPGVLENGLFVGLTDLVLVGEVDGDRVSVREF

biological target: T1, homolog of methionine γ-lyase (MGL) encoded by synpcc7942_2562, triple-FLAG-tagged (Synechococcus elongatus sp. PCC 7942) (UniProt Q54763); experiment: affinity purification with mass spectrometry; lysate of S. elongatus strain 2562::Tn5/2562::FLAG on anti-FLAG magnetic beads, 2 h at room temperature and overnight at 4 °C; eluted with 100 µM triple-FLAG peptide; non-tagged strain 2562::Tn5/2562 as negative control; three independent biological repetitions; hits at fold ≥ 2, p value ≤ 0.05
T1 sequence: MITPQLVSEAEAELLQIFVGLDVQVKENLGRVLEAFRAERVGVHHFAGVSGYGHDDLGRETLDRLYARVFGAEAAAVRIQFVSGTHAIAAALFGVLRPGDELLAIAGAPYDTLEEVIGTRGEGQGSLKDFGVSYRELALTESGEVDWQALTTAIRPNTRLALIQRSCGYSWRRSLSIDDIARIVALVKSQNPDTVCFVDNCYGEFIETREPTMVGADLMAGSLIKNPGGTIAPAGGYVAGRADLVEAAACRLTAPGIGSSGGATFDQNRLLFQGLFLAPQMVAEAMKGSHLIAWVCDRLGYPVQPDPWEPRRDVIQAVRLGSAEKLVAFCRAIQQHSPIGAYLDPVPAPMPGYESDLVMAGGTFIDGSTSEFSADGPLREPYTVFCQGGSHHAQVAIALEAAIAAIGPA

binding, binds:
B1
B2
B3
B4
B5
B6
B7
